## Primary screen of a compound library

Source: ChEMBL document CHEMBL3988442, “University of Dundee, Small-Polar-MMV Screening Library” (2021).

The filed quantity is “Percent Effect” (%). How 0% and 100% were set is not recorded. Most values in the screen are low, and negative values occur. Compounds were drawn at random from those tested, without regard to their results. Two or more numbers in one place are separate tests of the same structure; such repeats can differ widely. A dash means the value is not listed here; it may have been measured.

A: 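Whole-parasite assay of Trypanosoma brucei over 72 hours; the read-out is not stated. Compounds at 30 µM. Higher reads as stronger inhibition (inferred: compounds with an IC50 in retests scored well above the rest). Values scatter widely below zero; nearly all retest evidence comes from the higher of the two concentrations used. Size under these conditions: about 64,000 compounds, about 940 of them at 50% or above in at least one test.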
B: 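Cell assay of Leishmania donovani living inside macrophages; the read-out is not stated. Concentration: 30 µM. Higher reads as stronger inhibition (inferred: compounds with an IC50 in retests scored well above the rest). Of about 69,000 compounds tested this way, about 1,000 (1.5%) reached 50% or more in at least one test.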

| # | Compound | A | B |
|---|---|---|---|
| 1 | `O=C(Nc1cccnc1-n1cncn1)N(C1CCCC1)C1CC1` | -53.87 | 12.31 |
| 2 | `O=C(O)C(F)(F)F.O=C1CCC2(CCCN(C(=O)c3ccccn3)CC2)N1` (stereo unspecified) | -16.44 | 21.25 |
| 3 | `Cc1ccnn1-c1ccc(C(=O)N2CCCC(n3ccnc3)C2)cc1` (stereo unspecified) | 11.72 | 17.02 |
| 4 | `O=C(NCCNc1cnccn1)N1CCc2ccccc2C1` | -44.71 | 18 |
| 5 | `CC(=O)N1C[C@H](NC(=O)c2ccnc(N)c2)[C@@H](C(C)C)C1` | -17.87 | 13.99 |
| 6 | `CC(=O)NCC1CCN(C(=O)c2c[nH]c3cc(Cl)ccc23)CC1` | 5.606 | -1.714 |
| 7 | `[H][C@]12CC[C@@H](Nc3cccnn3)[C@@]1([H])CN(Cc1ccc3[nH]ccc3c1)C2` | 7.681 | 31.43 |
| 8 | `COc1cccc2c1OCC(C(=O)NCc1c(C)noc1C)C2` (stereo unspecified) | -21.18 | 34.23 |
| 9 | `NC(=O)c1nc2c(s1)CCN(Cc1ccccc1)CC2.O=C(O)C(F)(F)F` | - | -47.36 |
| 10 | `O=C(c1cc(Cl)c[nH]1)N1CCN(CCc2ccccn2)CC1` | -6.229 | 29.5 & 1.356 |
| 11 | `COC(=O)[C@@H]1Cc2ncn(C)c2CN1S(=O)(=O)c1ccc(OC)cc1` | -7.364 | 15.09 |
| 12 | `COc1ncccc1CN1CC[C@]2(C[C@@H](OCc3ccccn3)CO2)C1.O=C(O)C(F)(F)F.O=C(O)C(F)(F)F.O=C(O)C(F)(F)F` | 2.267 | -3.573 |
| 13 | `Cc1ccccc1C1CCCN1Cc1nc2c(cnn2C)c(=O)[nH]1` (stereo unspecified) | -22.37 | -14.06 |
| 14 | `Cc1ccc(-n2nnc(CC(=O)N3CCN(C(C)C)CC3)c2C)cc1` | -0.5192 | 22.37 |
| 15 | `Cc1ccccc1OCC(=O)N1CCCC(CNS(C)(=O)=O)C1` (stereo unspecified) | - | 9.901 |
| 16 | `Cc1nc(CNCC2CCCN2c2cccnn2)no1` (stereo unspecified) | 19.72 | 8.618 |
| 17 | `[H][C@@]12CN(C(=O)NC3CCCCC3)C[C@]1(C(=O)O)CN(c1cnccn1)C2` | -14.82 | 8.383 |
| 18 | `CCC(=O)N1CCC(Cc2nccnc2Nc2ccccn2)CC1` | -52.07 | -23.87 |
| 19 | `CCN(CCNC(=O)c1cccnc1OCCOC)C1CC1` | -5.509 | -3.292 |
| 20 | `COc1ncccc1C1CC(=O)Nc2cc(NS(C)(=O)=O)ccc21` (stereo unspecified) | 6.449 | 7.995 |
| 21 | `CC(O)CN1CCC(CNCc2cccc(C(F)(F)F)c2)CC1` (stereo unspecified) | 86.87 | 35.92 |
| 22 | `Cc1cc(C2CCCN2Cc2ccn(C)c(=O)c2)on1` (stereo unspecified) | 6.831 | 13.64 |
| 23 | `COCC1CCN(C(=O)c2cc(O)nc(CC(C)C)c2)CC1` | -15.6 | -0.2948 |
| 24 | `N[C@@H](Cc1c[nH]cn1)C(=O)N1CCC(Oc2ccc(F)cc2)CC1` | -26.35 | -20.11 |
| 25 | `COc1ccc(C2=CCN(C(=O)C3CCN(C)C(=O)C3)CC2)cc1` (stereo unspecified) | 57.6 | 20.86 |
| 26 | `O=C(c1cccc2c1OCCO2)N1CCCC(n2cccn2)C1` (stereo unspecified) | -3.841 | -20.68 |
| 27 | `COc1cc(F)ccc1NC(=O)NCCNC(=O)OC(C)(C)C` | -10.25 | 7.188 |
| 28 | `CCc1oc(C(=O)NCCNS(C)(=O)=O)cc1CN1CCCC1` | -27.52 | 2.501 |
| 29 | `Cc1noc(C)c1CN(Cc1cccnc1)C1CN2CCC1CC2` (stereo unspecified) | -43.97 | 9.252 |
| 30 | `Cc1cc(CSC2CCCN(c3cnn(C)c3)C2=O)no1` (stereo unspecified) | -46.67 | -26.1 |
| 31 | `CN(C)[C@@H]1CCN(S(C)(=O)=O)[C@H]1Cc1ccccc1` | -55.14 | 1.367 |
| 32 | `[H][C@@]12CN(Cc3csc(C)n3)C[C@]1([H])CN(C(=O)c1ccncc1)C2` | 2.366 | -18.13 |
| 33 | `Cn1ccnc1CN1CCN(CCOc2ccccc2C#N)CC1` | -40.18 | 23.75 |
| 34 | `CC(C)c1noc(CCCC(=O)N2CCN(Cc3cccnc3)CC2)n1` | -7.279 | -2.691 |
| 35 | `CC(C)N1CCc2c(CN(C)Cc3ccco3)cncc2C1.Cl.Cl.Cl` | 30.12 | 22.33 |
| 36 | `CC(C(=O)NC1(C#N)CCCCC1)N1CCc2c(ncn2C)C1` (stereo unspecified) | -34.08 | 41.77 |
| 37 | `Cc1ccc(OCCC(=O)N2CCOCC2c2ncon2)cc1C` (stereo unspecified) | -14.37 | -8.021 |
| 38 | `CC(C)CNC(=O)Cc1cnc(-n2cccc2)s1` | -40.14 | -10.98 |
| 39 | `CC(C)N1Cc2c(C(=O)N3CCOCC3)nn(C)c2C1.O=C(O)C(F)(F)F.O=C(O)C(F)(F)F` | - | 20.27 |
| 40 | `Cc1cc(CN2CCN(c3ccnc(-c4ccccc4)n3)CC2)no1` | 2.501 | 13.78 |
| 41 | `CCCNC(=O)c1ccc(-c2ccco2)[nH]c1=O` | 5.78 | 3.395 |
| 42 | `O=C(O)C(F)(F)F.O=C(O)C(F)(F)F.[H][C@@]12CCN(Cc3ccccn3)C[C@]1(C(=O)NCc1ccco1)CCO2` | -6.871 | 13.13 |
| 43 | `CCn1cc(C(=O)NCCN2CCCc3ccccc32)c(C)n1` | -123.5 | 25.29 |
| 44 | `CCOCCCC(=O)NCc1ccnc(N2CCN(C)CC2)c1` | -29.74 | -18.96 |
| 45 | `CNc1cc2c(nn1)CCN(C(=O)c1ccc3c(c1)OCO3)C2` | - | 27.22 |
| 46 | `CCC(NC(=O)Nc1ccc(OC)c(C)c1)c1ccncc1` (stereo unspecified) | 38.66 | 22.86 |
| 47 | `Cc1nnc(N2CCc3cncnc3C2)c(C#N)c1C` | -2.321 | 28.6 |
| 48 | `CC(=O)c1sc(C(NC(=O)c2ccccc2)C2CC2)nc1C` (stereo unspecified) | -50.09 | 7.52 |
| 49 | `COc1ccccc1CC(C)N(C)S(C)(=O)=O` (stereo unspecified) | -29.87 | 27.13 |
| 50 | `CC(O)CN1CCN(Cc2csc(-c3ncccn3)n2)CC1` (stereo unspecified) | 2.128 | 16.2 |
| 51 | `Cc1ccc(N2CCC(NC(C)c3cccs3)CC2)nc1` (stereo unspecified) | -14.52 | 23.89 |
| 52 | `CC(C)(C)CN(CCC#N)C(=O)c1cccc(CN2CCCC2)c1` | -37.04 | 15.51 |
| 53 | `Cc1nn(CCN2CCSCC2)cc1CNCC1CC1` | -60.64 | 11.85 |
| 54 | `N#Cc1ccc(N2CCC(NS(=O)(=O)c3cccs3)CC2)c(F)c1` | -65.55 | -33.17 |
| 55 | `Cc1cnccc1-n1nc(C(C)C)nc1CCN(C)S(C)(=O)=O` | -23.02 | -16.57 |
| 56 | `O=C1CN(C(=O)c2cc(Cl)ccc2F)c2ccncc2N1` | -51.89 | 15.26 |
| 57 | `CCCNC(=O)c1cccc(CNCc2csc(C(C)(C)C)n2)c1` | -12.45 | -43.9 |
| 58 | `CC(C)(C)OC(=O)N1CCC(NC2CCS(=O)(=O)C2)CC1` (stereo unspecified) | -6.203 | 15.84 |
| 59 | `Cc1nnc(CNC(=O)[C@@H]2C[C@H](NC(=O)C(C)(C)C)CN2C)[nH]1` | -21.65 | -21.96 |
| 60 | `CC(C)c1cc(NC(=O)CNC2CCc3nc(C(C)C)nn3C2)on1` (stereo unspecified) | 5.446 | 18.23 |
| 61 | `Cn1cc(CN2Cc3cn(C)nc3C(COCC3CC3)C2)cn1` (stereo unspecified) | -7.935 | 53.65 |
| 62 | `[H][C@@]12CN(C(=O)N(C)C)C[C@]1([H])C(=O)N(C)C21CCN(C(=O)CC(C)C)CC1` | -13.61 | 4.528 |

Some entries from above, unchanged:

* Cc1ccc(-n2nnc(CC(=O)N3CCN(C(C)C)CC3)c2C)cc1 | A: -0.5192%; B: 22.37%
* CCC(NC(=O)Nc1ccc(OC)c(C)c1)c1ccncc1 (stereo unspecified) | A: 38.66%; B: 22.86%
* Cc1cc(CSC2CCCN(c3cnn(C)c3)C2=O)no1 (stereo unspecified) | A: -46.67%; B: -26.1%
* Cc1cc(C2CCCN2Cc2ccn(C)c(=O)c2)on1 (stereo unspecified) | A: 6.831%; B: 13.64%
* CCCNC(=O)c1ccc(-c2ccco2)[nH]c1=O | A: 5.78%; B: 3.395%
* CCCNC(=O)c1cccc(CNCc2csc(C(C)(C)C)n2)c1 | A: -12.45%; B: -43.9%
* N[C@@H](Cc1c[nH]cn1)C(=O)N1CCC(Oc2ccc(F)cc2)CC1 | A: -26.35%; B: -20.11%